We go through two sequences from doi:10.1101/566836.

The exact form of at least one protein or probe is not confirmed. No signal at the amounts used counts as a negative.

This series deals with Nucb1 (Nucleobindin-1). Description: EMSA. As to conditions: 2 uM oligo. In general terms: A gel shift assay detects complexes by their altered migration in electrophoresis.

On to “TTTCTCTCTTTTAACGTGGGGGATAATAAT (double strand) [E3 (non-E-box AACGTG)]”, for which the binding result was “no binding”.

On to “TTTCTCTCTTTTCACGAGGGGGATAATAAT (double strand) [E2 (non-E-box CACGAG)]”, for which the binding result is “no binding”.
